This passage reports percent of control activity results from PubChem BioAssay AID1420 (Emory University Molecular Libraries Screening Center, 2008).

By UniProt entry, the sequences of proteins in these tests, tags left out. Where a name states a change or a piece, a line headed by the entry shows the natural chain unless it says otherwise.
UniProt P43367: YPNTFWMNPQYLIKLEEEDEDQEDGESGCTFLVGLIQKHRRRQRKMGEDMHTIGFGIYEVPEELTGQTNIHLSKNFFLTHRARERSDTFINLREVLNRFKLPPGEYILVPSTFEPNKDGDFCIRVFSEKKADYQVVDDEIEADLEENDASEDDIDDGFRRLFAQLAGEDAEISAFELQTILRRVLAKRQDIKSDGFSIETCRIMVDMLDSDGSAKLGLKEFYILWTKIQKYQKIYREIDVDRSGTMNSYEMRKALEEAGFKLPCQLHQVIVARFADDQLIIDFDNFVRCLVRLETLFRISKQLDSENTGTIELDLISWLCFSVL

The structures appear in SMILES notation. Among all 1,100 compounds or so, about 65 (6%) were called active. How the calls were made is not given here. Only a part is listed here, and it is no random draw. Measured potencies and affinities stand elsewhere.

For the assay, the target named is Calpain-2 catalytic subunit (Sus scrofa) (UniProt P43367). Briefly: pig calpain II inhibitor potency, dose response, biochemical, fluorogenic peptide substrate (AID 1420). Particulars: purified calpain II, 30 min; at 50 µM (top of the series).
`O=C(NNC(=O)c1cc(OCC(F)(F)F)ccc1OCC(F)(F)F)c1cccc(C(F)(F)F)c1`: the percent of control activity was inactive: 119%.
Turning to `CC(C)CCNC(=O)[C@H](CC(C)C)NC(=O)[C@H]1O[C@@H]1C(=O)O`, the percent of control activity came out at 13.1%.
